Test results taken from US20220054496A1, “MODULATION OF TRF1 FOR BRAIN CANCER TREATMENT” (Fundación Del Sector Público Estatal Centro Nacional De …, priority 2018, published 2022).
Entries after “also recorded” stand apart in the source; their conditions may differ. For at least one compound, name, drawing or mass did not settle the structure.

How the values were obtained:
p-AKT = p-AKT activation (p-AKT/AKT western blot) in h676 GSCs; type: cell-based, human; conditions: 1 μM, 24 h
Description: FIG. 47. […] Western Blot (up) and quantification (down) of p-AKT/AKT ratio in the h676 GSCs after 24 h treatment with 1 μM of the indicated compounds. Data are represented as mean±SD. n represents biological replicates.
The present inventors have confirmed the modulation of TRF1 through the PI3K-AKT pathway (Méndez-Pertuz et al., 2017). In order to check whether the novel compounds act independently of this pathway, the present inventors treated the cells for 24 h at 1 μM concentration and checked p-AKT activation. They also included in this analysis some compounds previously identified by the same research group: namely ETP-47037 (PI3Ki) (García-Beccaria et al., 2015), and ETP-50946 (FIG. 47, right graph of the lower part).

TRF1 [1] = assay: Screening of ETP-antitumoral library / phenotypic assay of TRF1 levels in CHA-9.3 cells; type: cell-based; conditions: CHA-9.3 mouse lung cancer cell line; 1 μM, 24 h
Description: All of them were tested at 1 μM during 24 h in the phenotypic assay that measure TRF1 levels.

TRF1 [2] = assay: Western blot of TRF1 protein levels in h676 GSCs; type: cell-based, human; conditions: 1 μM, 24 h
Description: FIG. 46. Screening of ETP-antitumoral library: Identification of TRF1 modulators in compounds approved by FDA or in clinical trials. (A) Drugs in ETP-antitumoral library distribution in Reactome Pathways. (B) Opera High ContentScreening system was used to identify compounds with the ability to inhibit TRF1, from representative images of confocal validation obtained from cells treated with DMSO (upper photograph of the right side of the panel and b) 1 μM of the tested compound, and determining the signal corresponding to TRF1 foci; TRF1 foci (green signal) can be appreciated clearly in the upper on the nuclear staining with DAPI (blue signal), but they have decreased in the lower photograph. […] (F) Inhibition of TRF1 levels by the MEK and ERK inhibitors represented in (D) and (E), respectively, measured by immunofluorescence. […] (H) Inhibition of TRF1 levels by the HSP90 inhibitors represented in (G), measured by immunofluorescence. […] (J) Inhibition of TRF1 levels by the tubulin agents represented in (I), measured by immunofluorescence. (K) Western Blot (up) and quantification (down) of TRF1 protein levels in the h676 GSCs after 24 h treatment with 1 μM of the indicated compounds. […]
Nuclear protein extracts were obtained using Nuclear Cytosolic Fractionation Kit (Biovision) and protein concentration was determined using the Bio-Rad DC Protein Assay (Bio-Rad). […]

h676 GSCs = assay: Drug combination studies (sphere number and diameter) in h676 GSCs; type: cell-based, human; conditions: number and diameter of spheres, 7 days
Text: FIG. 51. […] (A-F) Quantification of number of spheres (up) and diameter (down) in h676 GSCs treated with the indicated compounds. Representative image of the spheres (left). Data are represented as mean±SD (up) or mean±SD (down), n represents biological replicates (up) or number of spheres (down). Statistical analysis: unpaired t-test.
Using this concentration as a reference point, the present inventors designed a combinatorial matrix using different concentrations of the compounds (e.g. 2×GI50, GI50 and ½ GI50) to study all the possible combinations. Combination index is calculated to establish if the combination is synergistic, additive or antagonistic (FIG. 50A).

Structure (SMILES)	dependence on p-AKT (p-AKT activation) (p-AKT)	inhibition of TRF1 protein levels / TRF1 modulation in the screening (TRF1 [1])	degree of TRF1 inhibition (TRF1 protein levels by western blot) (TRF1 [2])	synergic effect in combination with PI3Ki (ETP-47037) (h676 GSCs)
Cc1nc(Nc2ncc(C(=O)Nc3c(C)cccc3Cl)s2)cc(N2CCN(CCO)CC2)n1 [Dasatinib]	p-AKT dependent	inhibit TRF1 protein levels; also recorded: novel TRF1 modulators	potent TRF1 modulators	–
COC1=C2C[C@@H](C)C[C@H](OC)[C@H](O)[C@@H](C)/C=C(\C)[C@H](OC(N)=O)[C@@H](OC)/C=C\C=C(/C)C(=O)NC(=CC1=O)C2=O [Geldanamycin]	p-AKT dependent	–	medium TRF1 modulators	significant synergic effect
Cn1cnc2c(F)c(Nc3ccc(Br)cc3Cl)c(C(=O)NOCCO)cc21 [Selumetinib]	–	–	–	significant synergic effect
